The values below come from paper PMC7819943, “Rice protein-binding microarrays: a tool to detect cis-acting elements near promoter regions in rice”.

Chains of the proteins cited; added tags and fusions are not shown.
UniProt Q0JBA9, entry or part of it: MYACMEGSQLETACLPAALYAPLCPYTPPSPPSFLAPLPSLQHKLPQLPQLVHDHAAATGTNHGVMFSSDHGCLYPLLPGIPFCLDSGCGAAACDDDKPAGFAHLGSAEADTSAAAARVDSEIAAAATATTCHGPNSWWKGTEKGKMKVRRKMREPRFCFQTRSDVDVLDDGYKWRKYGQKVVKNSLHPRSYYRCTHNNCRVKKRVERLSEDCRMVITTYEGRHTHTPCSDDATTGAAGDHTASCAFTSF

The other results are listed elsewhere or left out.

For this experiment, the target named is OsWRKY34 (Oryza sativa, UniProt Q0JBA9 1-250). Briefly: protein-binding microarray (RPBM); PBS, 2% BSA, 51.3 ng/ul salmon testes DNA, 50 uM zinc acetate, 200 nM TF, 25 C, 1 h; high values mean tight binding. The following applies: protein: recombinant; tags: N-terminal polyhistidine and DsRed monomer fusion (pET32a); label: CyDye5-dUTP incorporated in the synthesized complementary strand; 3' TTTTT single-stranded linker to array surface; dsDNA, one strand shown. The method, boiled down:
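Binding signal here means per-feature fluorescence intensity in arbitrary units. The values were read on an Axon 4000B scanner after a custom Agilent array, double-stranded by primer extension with Cy5-dUTP, was incubated with 200 nM protein at 25 °C for 1 h in PBS with 2% BSA, salmon testes DNA and 50 µM zinc acetate, then washed. The proteins were transcription factors with an N-terminal polyhistidine tag and DsRed, expressed in E. coli BL21-CodonPlus and purified on Ni–NTA.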
In the case of “TTCCTTGCTCCACCACAACACCGTCGACTCGAGGCGCACGCGGAGTCACCTAGTGCAG”, the binding signal is 9350 fluorescence intensity (a.u.).

As to “GCCAGTGTCACCTAATTATCTGTCGTTTATTTTATATTGTCGGAGTCACCTAGTGCAG”, the binding signal was 9890 fluorescence intensity (a.u.).

Take “TGGGAGGGGTAGAATCGTCATTACAAGACAAAGATGTCGGCGGAGTCACCTAGTGCAG”: the binding signal was 10700 fluorescence intensity (a.u.).

For “TTTGGCTTATCTTGTTCTTTTTCCATTTAAATATTAGCCCCGGAGTCACCTAGTGCAG”, the binding signal was 8430 fluorescence intensity (a.u.).

In the case of “GGGGAGGAGCAGTTGCCGCCGTCGCTGGCCTCGGTGAATCCGGAGTCACCTAGTGCAG”, the binding signal was 8430 fluorescence intensity (a.u.). To “CTTCAGTGTTCTTGACGACCTTGCTGCTTCTTGCCTCTGTCGGAGTCACCTAGTGCAG” belongs 10000 fluorescence intensity (a.u.); to “TCCAAACACGCTCTCTTCATCTAGCTCGAGTCCAACAAACCGGAGTCACCTAGTGCAG”, 9000 fluorescence intensity (a.u.). As for “CTCCTCCGCTCCACTCCCACCCGTCGCCGCCACCGCGTGCCGGAGTCACCTAGTGCAG”, the binding signal is 8340 fluorescence intensity (a.u.). “CATGATACTATAGCATCCACTTTGTTCATCTTTTTCGTTTCGGAGTCACCTAGTGCAG”: the binding signal is 8630 fluorescence intensity (a.u.). Consider “ACATTACGTATGTTCTATTTGTTTTTTGGTTGGGGTGTGTCGGAGTCACCTAGTGCAG”, for which the binding signal is 9250 fluorescence intensity (a.u.).

For “CCCAACACGACCCATCCCATCACTCTGTCCAACCGGGCCTCGGAGTCACCTAGTGCAG”, the binding signal is 9700 fluorescence intensity (a.u.).

In the case of “GCCGATCTCCTCTGCACCGCCGCCCACGATTCGCCGCCGTCGGAGTCACCTAGTGCAG”, the binding signal is 8940 fluorescence intensity (a.u.). With “GCCTCACCTCCGGCCACCGACCACCGCCGCCTCCGCGTCCCGGAGTCACCTAGTGCAG”, the binding signal is 9680 fluorescence intensity (a.u.). In the case of “CTTAGCTACCTGTTCTGCTTGTCAAGTTGTCATGTTGTATCGGAGTCACCTAGTGCAG”, the binding signal was 12000 fluorescence intensity (a.u.). Consider “GGAGTTTACCAGCCTAGCGTCTATGTTGCTCATTTTTGTTCGGAGTCACCTAGTGCAG”, for which the binding signal was 8030 fluorescence intensity (a.u.). For “TCTGCGGACTGCGGCTCTGCCCATACACGCTTATCAATGCCGGAGTCACCTAGTGCAG”, the binding signal was 8730 fluorescence intensity (a.u.).

Consider “GCCGCCTCATCCCGCACCGCTACGCCGGCCACGCCGCCTCCGGAGTCACCTAGTGCAG”, for which the binding signal was 10200 fluorescence intensity (a.u.). As to “ATACTTGATTAACCATACGTTTAACTCGTCGTTTCCTTTTCGGAGTCACCTAGTGCAG”, the binding signal was 9510 fluorescence intensity (a.u.). As to “TTTTTTTTTTTTGCGGGGCTTGACATCTGTTGTTTGACCTCGGAGTCACCTAGTGCAG”, the binding signal is 9300 fluorescence intensity (a.u.). Regarding “TCCACGTCACTTGGCCCCACCTGTCACCCACCCATCCGAACGGAGTCACCTAGTGCAG”, the binding signal was 8410 fluorescence intensity (a.u.). Regarding “CATGCTTTTCTTTCTGTACTTCCTGCCTAAACTTTGCCTACGGAGTCACCTAGTGCAG”, the binding signal was 9710 fluorescence intensity (a.u.). For the sequence “CCCATCGCCCACCCCGCTCGTCGCTTGCTCTGGCCTTCTCCGGAGTCACCTAGTGCAG”, the binding signal was 8080 fluorescence intensity (a.u.).

For the sequence “GTAACTGAGTCATCTCTAATTTCTAACTCCCATGGAATTACGGAGTCACCTAGTGCAG”, the binding signal was 8760 fluorescence intensity (a.u.). To “TTGATACCGTTGATTTTTTACACATGTTTAACCGTTCGTCCGGAGTCACCTAGTGCAG” belongs 8120 fluorescence intensity (a.u.).

Consider “CTGCTTCATTTGTCTCCACTTTTTGGTTTTTACAATTATTCGGAGTCACCTAGTGCAG”, for which the binding signal was 14300 fluorescence intensity (a.u.). To “GCCGCCATCCCACAGCTTTCCTAGGGTTAATCCTCCCGCGCGGAGTCACCTAGTGCAG” belongs 10600 fluorescence intensity (a.u.); to “ACACCTTCACACCATCATCTCTTTGCTTGATTCACCTGGACGGAGTCACCTAGTGCAG”, 12400 fluorescence intensity (a.u.); to “TGTGTGTCGGTGTATCAAATTACATTTTAAAAATTAATATCGGAGTCACCTAGTGCAG”, 9090 fluorescence intensity (a.u.). Turning to “AGCGGGGCAGAGCGCGGGGCGGGAGATGGCGACAAGTTCGCGGAGTCACCTAGTGCAG”, the binding signal is 8620 fluorescence intensity (a.u.). As for “AGCTCTGAATTCCTCTGTTTCGTCTGTTCTCGTCTTCAGCCGGAGTCACCTAGTGCAG”, the binding signal is 16200 fluorescence intensity (a.u.). As to “ATTATTTTCTTGTTTTAGTTCAATTCAATTCTTCCATGAACGGAGTCACCTAGTGCAG”, the binding signal was 8840 fluorescence intensity (a.u.). Turning to “GTCCCTAAGATAATATGTTTTGAATCTAACGTTTGGCTACCGGAGTCACCTAGTGCAG”, the binding signal is 8270 fluorescence intensity (a.u.). Consider “TATATTCCGCGCTCTACCTTGTTTTTCTAGGGCTCAAACCCGGAGTCACCTAGTGCAG”, for which the binding signal was 8790 fluorescence intensity (a.u.). In the case of “AATTCAATCTTATGAAAATTTTTCCATCCTTGACTACTAACGGAGTCACCTAGTGCAG”, the binding signal is 8180 fluorescence intensity (a.u.). Regarding “CCCATTTCCCTTGCCGTTTCTCGCGCACGAATCTGAACAACGGAGTCACCTAGTGCAG”, the binding signal was 8280 fluorescence intensity (a.u.).

Regarding “TTCCTGTGAAAGTCGCACGCATGCATTTGTCTGTTTCGTACGGAGTCACCTAGTGCAG”, the binding signal is 9820 fluorescence intensity (a.u.). To “TACGTTCTTCGCGAGCTCATTTGCTTTGTGGGAATTGGGGCGGAGTCACCTAGTGCAG” belongs 16100 fluorescence intensity (a.u.); to “GCCAAGATTGGAGAAGATGGGGAGATGAAGGGGTGGGGACCGGAGTCACCTAGTGCAG”, 9020 fluorescence intensity (a.u.); to “GTGGCTTGAATTGTGTTGTCTCGGGTTGAAATCCCTCACTCGGAGTCACCTAGTGCAG”, 8340 fluorescence intensity (a.u.). For the sequence “AACTCAAATTTTGGGTCCATTCTACATACCGTACACCGGCCGGAGTCACCTAGTGCAG”, the binding signal is 8140 fluorescence intensity (a.u.). Take “TCTTCTTCCATGGTCTTTTCTAGATAAGGCTCTCTAATGTCGGAGTCACCTAGTGCAG”: the binding signal is 8620 fluorescence intensity (a.u.).

For “GTTAGGCATGCTGCTTGTTTATTTTTTTTCAAGTTGAGAACGGAGTCACCTAGTGCAG”, the binding signal was 8140 fluorescence intensity (a.u.).
